Data published in doi:10.1101/2022.11.01.514535.
Substitutions are numbered along the chain they refer to. These are yes or no findings as the source states them, for the method shown. Binding seen in cells or lysates may run through a third protein. A result given as binding can be weak or reduced; the word gives no strength. Sequences can lack the tags named with a protein.

Legend:
C497R-FBXL6 flag (human) = biological target: T1, C497R-FBXL6 flag (human) (UniProt Q8N531); assay: co-IP
T1 sequence: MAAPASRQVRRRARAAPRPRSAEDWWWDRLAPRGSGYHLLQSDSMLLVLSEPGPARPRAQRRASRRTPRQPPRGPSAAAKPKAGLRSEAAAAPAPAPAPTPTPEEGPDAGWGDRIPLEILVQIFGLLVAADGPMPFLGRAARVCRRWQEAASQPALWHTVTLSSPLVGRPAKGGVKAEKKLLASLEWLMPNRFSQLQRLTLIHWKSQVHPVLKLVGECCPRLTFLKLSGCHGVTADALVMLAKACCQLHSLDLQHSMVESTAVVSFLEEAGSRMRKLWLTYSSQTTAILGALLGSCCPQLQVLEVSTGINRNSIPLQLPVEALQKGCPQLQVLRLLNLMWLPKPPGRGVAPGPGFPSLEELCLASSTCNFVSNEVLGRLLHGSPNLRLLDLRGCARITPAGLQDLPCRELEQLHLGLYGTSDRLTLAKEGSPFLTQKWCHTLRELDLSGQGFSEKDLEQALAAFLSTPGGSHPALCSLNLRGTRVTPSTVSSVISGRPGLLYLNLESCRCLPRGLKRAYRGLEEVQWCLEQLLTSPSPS

[1] = biological target: T2, FBXL6-Flag (F-box/LRR-repeat protein 6, wild type) (human) (UniProt Q8N531); assay: co-IP
T2 sequence: T1 sequence with R497C

- binding (C497R-FBXL6 flag (human)): binds
- binding [1]: binds
Substance: mitochondrial ribosomal protein L45 (MRPL45), endogenous (human (endogenous in HEK and HeLa))
